Measurements reported in PubChem BioAssay AID652243 (Drosophila RNAi Screening Center, 2013).
The screen tested about 24,000 reagents; this is a random part of those with a known target gene and a result. Of all reagents, 246 (1%) got an active call. 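Plates not normalised; calls are printed but the firefly/Renilla ratio behind them is not deposited; fold cut for lowering reported inconsistently.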 Raw values are not corrected between plates. Not stated in the record: the amount of reagent.

- Test: 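Fly genes required for human androgen receptor driven transcription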 (primary screen)
- Cell system: Drosophila S2R+ cells
- Knock-down reagent: long dsRNA against Drosophila genes
- Time to read-out: 72 h (48 h, then 24 h hormone)
- Challenge: synthetic androgen R1881 at 10 nM for 24 h
- Measured: 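Per-well raw luminescence of the androgen-driven firefly reporter and of the Renilla control, two replicates each, without normalisation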
- Scale: firefly reporter light: higher = more light from androgen-responsive reporter; Renilla control light: higher = more constitutive control signal (cell number, transfection)
- Active means: 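Hit when the log firefly-to-Renilla ratio dropped or increased by a fixed fold versus the mean of GFP or LacZ controls across duplicate plates; lowering cut given as 1.5 and as 3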
- Calls: active = hit: reporter lowered or raised; inactive = no hit

For CG11790 [SID104194182], the values are firefly reporter light, replicate 1 = 71537; firefly reporter light, replicate 2 = 52040; Renilla control light, replicate 1 = 7.33e5; Renilla control light, replicate 2 = 6.17e5; inactive.
With knock-down of snoRNA:U3:9B [SID104215478] the results were firefly reporter light, replicate 1 = 8.21e5; firefly reporter light, replicate 2 = 8.56e5; Renilla control light, replicate 1 = 1.52e6; Renilla control light, replicate 2 = 1.86e6; inactive.
With knock-down of tgo [SID104196869], the record shows firefly reporter light, replicate 1 = 56478; firefly reporter light, replicate 2 = 52983; Renilla control light, replicate 1 = 4.15e5; Renilla control light, replicate 2 = 6.05e5; inactive.
tgo [SID104208474] gave firefly reporter light, replicate 1 = 5.55e5; firefly reporter light, replicate 2 = 5.24e5; Renilla control light, replicate 1 = 1.05e6; Renilla control light, replicate 2 = 1.37e6; inactive.
Depletion of Cnb [SID104188361] resulted in: firefly reporter light, replicate 1 = 1.04e6; firefly reporter light, replicate 2 = 8.15e5; Renilla control light, replicate 1 = 1.37e6; Renilla control light, replicate 2 = 1.16e6; inactive.
Against CG9399 [SID104196280], the values are firefly reporter light, replicate 1 = 1.68e5; firefly reporter light, replicate 2 = 1.52e5; Renilla control light, replicate 1 = 3.79e6; Renilla control light, replicate 2 = 3.06e6; inactive.
CG8840 [SID104180505] gave firefly reporter light, replicate 1 = 1.14e5; firefly reporter light, replicate 2 = 1.11e5; Renilla control light, replicate 1 = 8.57e5; Renilla control light, replicate 2 = 1.11e6; inactive.
Against MESR4 [SID104186693] the deposit lists firefly reporter light, replicate 1 = 1.21e5; firefly reporter light, replicate 2 = 1.41e5; Renilla control light, replicate 1 = 7.11e5; Renilla control light, replicate 2 = 7.11e5; inactive.
Knock-down of Brd8 [SID104194658] gave: firefly reporter light, replicate 1 = 1.28e5; firefly reporter light, replicate 2 = 79693; Renilla control light, replicate 1 = 9.86e5; Renilla control light, replicate 2 = 7.07e5; inactive.
Brd8 [SID104207355] gave firefly reporter light, replicate 1 = 4.73e5; firefly reporter light, replicate 2 = 3.92e5; Renilla control light, replicate 1 = 1.72e6; Renilla control light, replicate 2 = 1.85e6; inactive.
Depletion of CG2187 [SID104195217] resulted in: firefly reporter light, replicate 1 = 2.15e5; firefly reporter light, replicate 2 = 2.37e5; Renilla control light, replicate 1 = 2.75e6; Renilla control light, replicate 2 = 3.14e6; inactive.
With knock-down of CG2187 [SID104204093], the record shows firefly reporter light, replicate 1 = 6.54e5; firefly reporter light, replicate 2 = 5.60e5; Renilla control light, replicate 1 = 6.35e5; Renilla control light, replicate 2 = 6.65e5; inactive.
Gad1 [SID104188453] scored firefly reporter light, replicate 1 = 7.15e5; firefly reporter light, replicate 2 = 3.48e5; Renilla control light, replicate 1 = 1.46e6; Renilla control light, replicate 2 = 1.06e6; inactive.
Knock-down of Gad1 [SID104205596] resulted in: firefly reporter light, replicate 1 = 2.72e5; firefly reporter light, replicate 2 = 2.07e5; Renilla control light, replicate 1 = 7.39e5; Renilla control light, replicate 2 = 5.40e5; inactive.
Depletion of CG2017 [SID104192085] gave: firefly reporter light, replicate 1 = 29721; firefly reporter light, replicate 2 = 54046; Renilla control light, replicate 1 = 5.77e5; Renilla control light, replicate 2 = 5.51e5; inactive.

Look-ups from the entries so far:
For “Renilla control light, replicate 1”, CG11790 [SID104194182] is entered as 7.33e5
Under “call”, Brd8 [SID104194658] is entered as inactive
Under “call”, CG2187 [SID104204093] is entered as inactive

Additional reagents follow:
wrapper [SID104184515] gave firefly reporter light, replicate 1 = 6.34e5; firefly reporter light, replicate 2 = 4.37e5; Renilla control light, replicate 1 = 1.18e6; Renilla control light, replicate 2 = 1.07e6; inactive.
Rbbp5 [SID104191570] gave firefly reporter light, replicate 1 = 1.33e5; firefly reporter light, replicate 2 = 94334; Renilla control light, replicate 1 = 1.35e6; Renilla control light, replicate 2 = 1.63e6; inactive.
Knock-down of Oatp33Eb [SID104182747] gave: firefly reporter light, replicate 1 = 2.11e5; firefly reporter light, replicate 2 = 2.62e5; Renilla control light, replicate 1 = 1.84e6; Renilla control light, replicate 2 = 1.76e6; inactive.
For RpL18A [SID104187330], the entry reads firefly reporter light, replicate 1 = 71602; firefly reporter light, replicate 2 = 87069; Renilla control light, replicate 1 = 8.28e5; Renilla control light, replicate 2 = 8.28e5; inactive.
After knock-down of saturn [SID104189095], the record shows firefly reporter light, replicate 1 = 3.52e5; firefly reporter light, replicate 2 = 3.87e5; Renilla control light, replicate 1 = 5.82e5; Renilla control light, replicate 2 = 7.69e5; inactive.
After knock-down of saturn [SID104206980], the record shows firefly reporter light, replicate 1 = 5.03e5; firefly reporter light, replicate 2 = 8.33e5; Renilla control light, replicate 1 = 6.86e5; Renilla control light, replicate 2 = 1.63e6; inactive.
For CG30472 [SID104201771] the deposit lists firefly reporter light, replicate 1 = 4.53e5; firefly reporter light, replicate 2 = 6.38e5; Renilla control light, replicate 1 = 1.45e6; Renilla control light, replicate 2 = 2.15e6; inactive.
Knock-down of CG30472 [SID104205333] gave: firefly reporter light, replicate 1 = 3.51e5; firefly reporter light, replicate 2 = 3.71e5; Renilla control light, replicate 1 = 7.70e5; Renilla control light, replicate 2 = 4.68e5; inactive.
CG42808 [SID104186162] gave firefly reporter light, replicate 1 = 7.14e5; firefly reporter light, replicate 2 = 8.05e5; Renilla control light, replicate 1 = 2.44e6; Renilla control light, replicate 2 = 2.77e6; inactive.
With knock-down of lz [SID104198582], the screen gave firefly reporter light, replicate 1 = 2.81e5; firefly reporter light, replicate 2 = 3.09e5; Renilla control light, replicate 1 = 3.45e6; Renilla control light, replicate 2 = 2.91e6; inactive.
Silencing of lz [SID104201811] resulted in: firefly reporter light, replicate 1 = 4.92e5; firefly reporter light, replicate 2 = 5.61e5; Renilla control light, replicate 1 = 1.94e6; Renilla control light, replicate 2 = 2.06e6; inactive.
Against lz [SID104203703] the deposit lists firefly reporter light, replicate 1 = 4.14e5; firefly reporter light, replicate 2 = 4.28e5; Renilla control light, replicate 1 = 4.41e5; Renilla control light, replicate 2 = 5.55e5; inactive.
